At least one compound was matched to its structure with a doubt left.
Experiments:
healthy subjects [1] = experiment: Digit span forward test; assay type: in vivo, human; conditions: 10 mg (p value 0.6432) and 25 mg (p value 0.1147); Visit 5 (Day 7)
subjects = conditions: cited from earlier work
[2] = test system: participants with treatment-resistant depression (TRD); conditions: cited from earlier work
healthy subjects [3] = experiment: Verbal fluency test; assay type: in vivo, human; conditions: 10 mg (p-value 0.7635) and 25 mg (p-value 0.8412); Visit 5 (Day 7)
healthy subjects [4] = experiment: Positive and Negative Affect Schedule (PANAS); assay type: in vivo, human
Text: In some embodiments, the Positive and Negative Affect Schedule (PANAS) is used to evaluate the safety and/or efficacy of psilocybin. The PANAS measures the acute emotional drug effects and comprises 2 mood scales that measure positive and negative affect. Positive affect refers to the propensity to experience positive emotions and interact with others positively. Negative affect involves experiencing the world in a more negative way. Subjects respond to 10 questions associated with negative affect and 10 questions associated with positive affect. The questions are scaled using a 5-point scale that ranges from “slightly or not at all (1)” to “extremely (5)”. A total higher score on the positive affect questions indicates more of a positive effect while a lower score on the negative affect questions indicates less of a negative affect. […]
The Positive and Negative Affects Schedule (PANAS) score was also evaluated to measure the effect of psilocybin.

healthy subjects [5] = experiment: Scale of Social Responsibility (SSR); assay type: in vivo, human; conditions: 10 mg and 25 mg; Day 7 and Day 84
Method: In some embodiments, the Scale of Social Responsibility (SSR) is utilized to evaluate the safety and/or efficacy of psilocybin. The SSR measures perceptions regarding the importance of ethics and social responsibility.
(§1) The Pictorial Empathy Test (PET), Reading the Mind in the Eyes Test (RMET), Scale of Social Responsibility (SSR), Social Value Orientation (SVO), and Toronto Empathy Questionnaire (TEQ) were performed. Table 20 summarizes the results of the mixed model for repeated measures (MMRM) analysis for each of the aforementioned social cognition panel scales measured on Day 7 and Day 84 after study drug administration.

healthy subjects [6] = experiment: Toronto Empathy Questionnaire (TEQ); assay type: in vivo, human; conditions: 10 mg and 25 mg; Day 7 and Day 84
Text: In some embodiments, the Toronto Empathy Questionnaire (TEQ) is utilized to evaluate the safety and/or efficacy of psilocybin. The TEQ represents empathy as a primarily emotional process. […] The TEQ is a brief, reliable and valid instrument for the assessment of empathy. In some embodiments, after treating according to the methods of the disclosure, a subject's TEQ score increases by about 5%, about 10%, about 15%, about 20%, about 25%, about 30%, about 35%, about 40%, about 45%, about 50%, about 55%, about 60%, about 65%, about 70%, about 75%, about 80%, about 85%, about 90%, about 95%, or about 100%, about 110%, about 120%, about 130%, about 140%, about 150%, about 160%, about 170%, about 180%, about 190%, about 200%, about 210%, about 220%, about 230%, about 240%, about 250%, about 260%, about 270%, about 280%, about 290%, or about 300%, or more, compared to prior to treatment.
as §1

healthy subjects [7] = experiment: CANTAB Rapid Visual Information Processing (RVPA); assay type: in vivo, human; conditions: 10 mg and 25 mg
healthy subjects [8] = experiment: Social Value Orientation (SVO); assay type: in vivo, human; conditions: 10 mg and 25 mg; Day 7 and Day 84
Text: In some embodiments, the Social Value Orientation (SVO) test is utilized to evaluate the safety and/or efficacy of psilocybin. The SVO Slider Measure has 6 primary items with 9 secondary (and optional) items. All of the items have the same general form. Each item is a resource allocation choice over a well-defined continuum of joint payoffs.
as §1

healthy subjects [9] = experiment: CANTAB Intra-Extra Dimensional Set Shift (IEDYERT); assay type: in vivo, human; conditions: 10 mg and 25 mg; Day 7
healthy subjects [10] = experiment: Pictorial Empathy Test (PET); assay type: in vivo, human; conditions: Day 7 and Day 84
Method: In some embodiments, the Pictorial Empathy Test (PET) is utilized to evaluate the effect of psilocybin on affective empathy.
as §1

Wistar-Kyoto (WKY) rats = experiment: EEG power spectral analysis in rat model of TRD; assay type: in vivo
healthy subjects [11] = experiment: Reading the Mind in the Eyes Test (RMET); assay type: in vivo, human; conditions: 10 mg and 25 mg; Day 7 and Day 84
Text: In some embodiments, Reading the Mind in the Eyes Test (RMET) is utilized to evaluate the safety and/or efficacy of psilocybin. The RMET has 36 items, in which subjects are presented with a photograph of the eyes region of the face and must choose 1 of 4 adjectives or phrases to describe the mental state of the person pictured. A definition handout is provided at the beginning of the task and a practice item precedes the first trial.
as §1

[12] = 1, 3 and 10 mg/kg, i.p., subsequent part of the light period

CN(C)CCc1c[nH]c2cccc(OP(=O)(O)O)c12 [Psilocybin, psilocybin]
Digit span scores compared to placebo (healthy subjects [1]): No statistically significant difference
Pharmacological activity of low dose (subjects; 1 mg, perorally): inert
Efficacy and tolerability previously shown (subjects; 25 mg, perorally): effective and well tolerated with no serious or unexpected adverse events
Duration of effects typically experienced (subjects; 25 mg): 5 to 6 h
Participants with sustained response ([2]; at 3 months): Over 40%
Depressive symptoms after treatment ([2]; psilocybin coupled with psychological support, open-label): rapid significant decrease of depressive symptoms
Verbal fluency score compared to placebo (healthy subjects [3]): No statistically significant difference
PANAS reduction in positive affect from baseline to the day of dosing (seen with placebo) (healthy subjects [4]; 10 mg and 25 mg, p<0.03): not observed
PANAS negative affect, change from baseline (healthy subjects [4]; 10 mg, Day 0 after treatment): slight decrease
SSR difference versus placebo (healthy subjects [5]): no difference between either psilocybin group and placebo
TEQ difference versus placebo (healthy subjects [6]): no difference between either psilocybin group and placebo
RVPA overall change as a result of exposure (ANOVA) (healthy subjects [7]): no evidence of an overall change in RVPA
RVPA LS mean difference from placebo (healthy subjects [7]; Day 28, p<0.05): different from placebo
SVO difference versus placebo (healthy subjects [8]): no difference between either psilocybin group and placebo
IEDYERT difference versus placebo and between doses (healthy subjects [9]): No significant difference in performance
PET difference versus placebo (healthy subjects [10]; 10 mg and 25 mg): no difference between either psilocybin group and placebo
Reduction in PET score, 10 mg versus 25 mg (healthy subjects [10]): greater with 10 mg than 25 mg
EEG beta (10-30 Hz) oscillations (Wistar-Kyoto (WKY) rats; [12]): increased
EEG gamma oscillations (Wistar-Kyoto (WKY) rats; [12]): suppressed
EEG theta (4-10 Hz) oscillations (Wistar-Kyoto (WKY) rats; [12]): increased
EEG high-frequency gamma (30-100 Hz) oscillations (Wistar-Kyoto (WKY) rats; 1st hour post-treatment): suppressed
RMET difference versus placebo (healthy subjects [11]): no difference between either psilocybin group and placebo

Reference: US20230023092A1, “TREATMENT OF DEPRESSION AND OTHER VARIOUS DISORDERS WITH PSILOCYBIN” (COMPASS […], priority 2019, published 2023)
